Laboratory results: PubChem BioAssay AID1053208 (Peter MacCallum Cancer Centre, 2014)
Aim: 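Genes whose silencing cuts survival of bone tumour cells only with doxorubicin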 (primary screen). Cells: mouse osteosarcoma cells, early-passage culture from an engineered mouse model of fibroblastic bone tumour. Knock-down reagent: siRNA pool against mouse genes, 40 nM. Time to read-out: about 120 h (48 h before drug, then 72 h with drug). Conditions: doxorubicin 100 nM for 72 h, roughly 30-40% inhibitory dose. Measurement: 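Viability read as ATP luminescence after 72 h of 100 nM doxorubicin or none, duplicate wells averaged, scaled to non-targeting siRNA, then expressed as robust z-scores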. Direction: viability z-score with doxorubicin: higher = more viable cells under doxorubicin; viability z-score without drug: higher = more viable cells with knock-down alone. Call rule: 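a pool counts as active when its viability z-score with doxorubicin is -2 or below and its z-score without drug lies between -2 and 2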.
The whole screen tested about 17,000 reagents; this is a random part of them. 788 of them (4.7%) count as active. 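Calls rest on z-score classes alone; an extra cut-off of viability at most 70% of control was not applied to them.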 A number with no mark means an inactive call. Some reagents were tested in more than one well and are listed for each. Further read-outs or replicates are left out here. No sequences are given here.

With knock-down of Or9g19 the results were combined z-score class no change with or without drug; viability z-score with doxorubicin -1.8; viability z-score without drug -0.67.
Silencing of Pcsk1n came out at: combined z-score class no change with or without drug; viability z-score with doxorubicin -1.8; viability z-score without drug 0.17.
Silencing of Grk2 gave: combined z-score class no change with or without drug; viability z-score with doxorubicin 0; viability z-score without drug -0.67.
With knock-down of Grk2, the record shows combined z-score class no change with or without drug; viability z-score with doxorubicin -0.11; viability z-score without drug -1.18.

Records above whose target name begins with G or g (2):
Grk2 → combined z-score class: no change with or without drug; viability z-score with doxorubicin: 0; viability z-score without drug: -0.67
Grk2 → combined z-score class: no change with or without drug; viability z-score with doxorubicin: -0.11; viability z-score without drug: -1.18

Additional records follow:
Depletion of Pgf resulted in: combined z-score class no change with or without drug; viability z-score with doxorubicin 1.12; viability z-score without drug 1.01.
Cfap206 showed combined z-score class no change with or without drug; viability z-score with doxorubicin -0.67; viability z-score without drug 0.67.
Depletion of Hnf4aos resulted in: combined z-score class high cell count without drug only; viability z-score with doxorubicin 1.24; viability z-score without drug 2.02.
Crhbp scored combined z-score class no change with or without drug; viability z-score with doxorubicin -0.67; viability z-score without drug 0.17.
Knock-down of Rmnd1 resulted in: combined z-score class no change with or without drug; viability z-score with doxorubicin 0.34; viability z-score without drug -0.17.
Depletion of Ppm1j gave: combined z-score class no change with or without drug; viability z-score with doxorubicin 1.69; viability z-score without drug 0.17.
Silencing of Catsperz came out at: combined z-score class no change with or without drug; viability z-score with doxorubicin 0.67; viability z-score without drug 0.84.
Silencing of Ptprm came out at: combined z-score class no change with or without drug; viability z-score with doxorubicin -0.79; viability z-score without drug -1.85.
